Data as given in PubChem BioAssay AID1508588 (Peter MacCallum Cancer Centre, 2020)

Purpose: 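Which gene losses make BRAF-mutant melanoma cells more responsive to vemurafenib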 (primary screen)
Cells: human WM266.4 melanoma cells (BRAF V600 mutant)
Knock-down reagent: siRNA pool against human genes, 40 nM
Timing: 96 h from transfection to read-out
Conditions: vemurafenib 300 nM (about IC25), added 48 h after transfection, for 48 h; comparison arm got DMSO vehicle only
Read-out: 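Ratios to non-targeting siRNA for cell gain, counted as DAPI nuclei after minus before drug and averaged over two replicates, and for absorbance-read medium lactate per cell; both binned into fold-change classes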
Reading the numbers: cell gain with vemurafenib: higher = more cell gain than with non-targeting siRNA; lactate per cell with vemurafenib: higher = more lactate made per cell
Call rule: 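a knock-down counts as enhancing when its fold-change classes with vehicle and with vemurafenib, taken together, show a stronger drug effect on cell gain or lactate per cell; exact class pairs not stated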
Meaning of the calls: active = enhances vemurafenib effect; inactive = no enhancement seen
In all, the deposit lists about 18,000 reagents; below is a part drawn at random. In the full data, 790 (4.4%) are marked active. 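Calls rest on a combination of fold-change classes in drug and vehicle arms, not all shown here.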 Unmarked entries are inactive.

TJP2 (GeneID 9414) gave cell gain with vemurafenib 0.48; lactate per cell with vemurafenib 2.06.
Silencing of PDCD2 (GeneID 5134) gave: cell gain with vemurafenib -0.04; lactate per cell with vemurafenib 0.84.
After knock-down of NPRL2 (GeneID 10641), the screen gave cell gain with vemurafenib 0.88; lactate per cell with vemurafenib 0.55.
After knock-down of NINJ1 (GeneID 4814), the record shows cell gain with vemurafenib 0.24; lactate per cell with vemurafenib 1.09.
Silencing of NUP205 (GeneID 23165) gave: cell gain with vemurafenib -0.05; lactate per cell with vemurafenib 2.14.
Silencing of BCKDK (GeneID 10295) gave: cell gain with vemurafenib 0.28; lactate per cell with vemurafenib 1.24.
With knock-down of CCDC149 (GeneID 91050), the screen gave cell gain with vemurafenib 0.37; lactate per cell with vemurafenib 1.6.
PDE7A (GeneID 5150) gave cell gain with vemurafenib 0.2; lactate per cell with vemurafenib 1.36.
For STK24 (GeneID 8428) the deposit lists cell gain with vemurafenib 0.47; lactate per cell with vemurafenib 1.84.
CAMLG (GeneID 819) gave cell gain with vemurafenib 0.94; lactate per cell with vemurafenib 0.56.
Against SBF1 (GeneID 6305), the values are cell gain with vemurafenib 1.18; lactate per cell with vemurafenib 0.72.
For EXT2 (GeneID 2132) the deposit lists cell gain with vemurafenib 0.79; lactate per cell with vemurafenib 0.54.
Depletion of CFC1 (GeneID 55997) gave: cell gain with vemurafenib 0.4; lactate per cell with vemurafenib 0.92.
For JMJD1C (GeneID 221037), the entry reads cell gain with vemurafenib 0.73; lactate per cell with vemurafenib 0.84.
Silencing of PRAMEF3 (retired record) (GeneID 401940) resulted in: cell gain with vemurafenib 0.94; lactate per cell with vemurafenib 0.84.
PTPN5 (GeneID 84867) gave cell gain with vemurafenib 0.38; lactate per cell with vemurafenib 0.99.
Knock-down of PCDHGA11 (GeneID 56105) gave: cell gain with vemurafenib 0.65; lactate per cell with vemurafenib 0.76.
Depletion of COX16 (GeneID 51241) gave: cell gain with vemurafenib 0.86; lactate per cell with vemurafenib 1.16.
Knock-down of TFAP2D (GeneID 83741) gave: cell gain with vemurafenib 0.51; lactate per cell with vemurafenib 1.03.
After knock-down of CDH4 (GeneID 1002) the results were cell gain with vemurafenib 0.43; lactate per cell with vemurafenib 1.2.
For SHC4 (GeneID 399694), the entry reads cell gain with vemurafenib 1.1; lactate per cell with vemurafenib 0.7.
For RLBP1 (GeneID 6017) the deposit lists cell gain with vemurafenib 0.88; lactate per cell with vemurafenib 1.5.
With knock-down of PTPN4 (GeneID 5775) the results were cell gain with vemurafenib 0.83; lactate per cell with vemurafenib 0.48.
PIK3C2B (GeneID 5287) gave cell gain with vemurafenib 0.29; lactate per cell with vemurafenib 0.78.
TPK1 (GeneID 27010) scored cell gain with vemurafenib 0.31; lactate per cell with vemurafenib 1.88.
PCOTH (GeneID 542767) showed cell gain with vemurafenib 1.02; lactate per cell with vemurafenib 0.76.
Knock-down of ASIC3 (GeneID 9311) came out at: cell gain with vemurafenib 0.66; lactate per cell with vemurafenib 0.43.
With knock-down of SREK1IP1 (GeneID 285672) the results were cell gain with vemurafenib 0.63; lactate per cell with vemurafenib 0.94.
Knock-down of GOLGA6L9 (GeneID 440295) resulted in: cell gain with vemurafenib 0.78 (active); lactate per cell with vemurafenib 0.17.
Silencing of CIMAP3 (GeneID 128344) gave: cell gain with vemurafenib 0.79; lactate per cell with vemurafenib 0.87.
PDGFRB (GeneID 5159) scored cell gain with vemurafenib 0.55; lactate per cell with vemurafenib 1.24.
For COL1A2 (GeneID 1278), the entry reads cell gain with vemurafenib 0.07; lactate per cell with vemurafenib 1.43.
Silencing of SAP30BP (GeneID 29115) came out at: cell gain with vemurafenib 0.37; lactate per cell with vemurafenib 1.4.
Depletion of HEPACAM (GeneID 220296) came out at: cell gain with vemurafenib 0.36; lactate per cell with vemurafenib 0.94.
With knock-down of ENPP3 (GeneID 5169), the screen gave cell gain with vemurafenib 0.35; lactate per cell with vemurafenib 0.2.
STX7 (GeneID 8417) showed cell gain with vemurafenib 0.83; lactate per cell with vemurafenib 1.06.
After knock-down of PCGF6 (GeneID 84108), the screen gave cell gain with vemurafenib 0.53; lactate per cell with vemurafenib 0.86.
After knock-down of CTSF (GeneID 8722) the results were cell gain with vemurafenib 1.15; lactate per cell with vemurafenib 0.68.
Against SERPINB2 (GeneID 5055) the deposit lists cell gain with vemurafenib 0.69; lactate per cell with vemurafenib 1.06.
With knock-down of GGN (GeneID 199720), the record shows cell gain with vemurafenib 0.63; lactate per cell with vemurafenib 1.17.

Hits (from the list above):
GOLGA6L9 (GeneID 440295) — cell gain with vemurafenib: 0.78 (active); lactate per cell with vemurafenib: 0.17
